The text below walks through data of article PMC11719849, “Allosteric modulation of the Lon protease via ssDNA binding and local charge changes” (The Journal of Biological Chemistry, 2024).

Chains of the proteins cited; added tags and fusions are not shown. Lines headed by an entry give the natural chain unless they say otherwise; changes in a name come on top.
UniProt P0CAW0: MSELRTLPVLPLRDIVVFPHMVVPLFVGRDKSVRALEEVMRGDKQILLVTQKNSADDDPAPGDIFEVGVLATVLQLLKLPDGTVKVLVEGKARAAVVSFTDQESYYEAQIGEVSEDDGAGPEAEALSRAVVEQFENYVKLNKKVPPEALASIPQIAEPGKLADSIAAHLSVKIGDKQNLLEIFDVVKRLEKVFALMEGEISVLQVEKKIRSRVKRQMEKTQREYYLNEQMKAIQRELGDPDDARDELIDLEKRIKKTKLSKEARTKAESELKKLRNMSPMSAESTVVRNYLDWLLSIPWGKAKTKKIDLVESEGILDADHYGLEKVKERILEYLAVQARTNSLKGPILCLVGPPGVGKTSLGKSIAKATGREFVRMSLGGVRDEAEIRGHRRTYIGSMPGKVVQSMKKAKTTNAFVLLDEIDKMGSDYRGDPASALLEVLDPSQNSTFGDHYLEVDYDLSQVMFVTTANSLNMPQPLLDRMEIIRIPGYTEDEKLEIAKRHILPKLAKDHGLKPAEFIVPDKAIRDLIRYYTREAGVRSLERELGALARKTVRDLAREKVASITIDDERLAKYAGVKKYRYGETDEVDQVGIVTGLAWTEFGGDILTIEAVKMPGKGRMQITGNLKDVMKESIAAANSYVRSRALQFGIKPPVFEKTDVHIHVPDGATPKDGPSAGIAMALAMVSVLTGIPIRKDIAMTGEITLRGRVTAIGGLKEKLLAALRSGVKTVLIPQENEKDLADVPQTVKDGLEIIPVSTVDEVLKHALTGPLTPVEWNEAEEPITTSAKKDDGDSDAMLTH

The exact form of at least one protein or probe is not confirmed. For some assays here: Weaker means in comparison with the reference protein, sequence or condition of that experiment. At least one verdict rests on a figure or table, not on a statement of the authors.

The target in data set [1] is Lon (wild type) (Caulobacter crescentus) (UniProt P0CAW0). Briefly: competition with a labelled probe. The note with it: unlabeled dsDNA competitor vs FAM-ssDNA, weaker than ssDNA; recombinant protein.
For data set [2] the target is unchanged. As to the kind of experiment: fluorescence polarization. Conditions: 0.1 uM Lon6, 25 nM FAM-ssDNA; FP: 25 mM HEPES pH 7.5, 10 mM MgCl2, 100 mM KCl, 0.05% Tween-20, 30 C, 0.1 uM Lon (hexamer), 25 nM DNA; mass photometry in TK buffer, 200 nM Lon monomer; recombinant protein; label: FAM (printed at 5' side); single-stranded DNA. On the technique in general: Polarisation of emitted light reports the rotation of a fluorescent probe.

With “AACGGATGATCCACAGGAGAGTCTGGCGCAGGGCGAGAG (double strand) [G1Box dsDNA]”, the binding result in data set [1] is listed as “binds more weakly”. As to “AACGGATGATCCACAGGAGAGTCTGGCGCAGGGCGAGAG [FAM-ssDNA (G1Box top strand)]”, the binding result in data set [2] was “binds”.
